Consider two compounds from paper PMC8740778, “Translational Pharmacokinetic–Pharmacodynamic Modeling of NaV1.7 Inhibitor MK-2075 to Inform Human Efficacious Dose” (Frontiers in Pharmacology, 2021).

In the data set the test system is BALB/c male mice. Nature of the data set: Mouse tail flick latency. The note with it: sigmoidal Emax model of tail flick latency. In kind it is in vivo.

Regarding `CN1CC[C@]23c4c5ccc(O)c4O[C@H]2[C@@H](O)C=C[C@H]3[C@H]1C5` [Morphine], the “Hill coefficient (h)” value was 1.32 ± 0.33.
To `COc1cccc(C2(O)CCCCC2CN(C)C)c1` (centres unmarked) [Tramadol] belongs 2.76 ± 0.58.
